# In PubChem BioAssay (EPA / NIEHS):
# This list was built around the results that the source calls inconclusive (neither active nor inactive); the mix of calls is not that of the screen. Potencies beside an inconclusive call are fits to weak or partial responses and may not hold up. Activity calls are given as the source filed them. How the source made its calls: active means hit-call score of the fitted dose curve at least 0.9, where 1 is the maximum; inconclusive means response in the unintended direction; inactive means score below 0.9.
# Assay: Tanguay_ZF_120hpf_TR_legacy: (Legacy) Oregon State University Tanguay Lab 120 Hour Post-fertilization zebrafish Assay for Touch Response (AID 2283667)
# In short: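 Tropical 5D wild-type zebrafish embryos were exposed statically in sealed, foil-covered plates at 28C until 120 hpf, with 0.64% (vol/vol) final DMSO. Touch response was scored as present or absent; embryos that died were not scored.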
SMILES,outcome,AC50
COCC(C)OCC(C)OCC(C)O (stereo unspecified),inactive,
CCN(CC)CCOc1ccc(C(=C(Cl)c2ccccc2)c2ccccc2)cc1,,inconclusive: 6.78 µM
Oc1cc2ccccc2c2ccccc12,,active: 38.8 µM
C#C[C@]1(O)CC[C@H]2[C@@H]3CCC4=CC(=O)CC[C@@H]4[C@H]3CC[C@@]21CC,,inconclusive: 143 µM
CC(C)=CCCC(C)=CC=O,,inconclusive: 116 µM
O=C(c1ccc(O)cc1O)c1ccc(O)cc1O,,inconclusive: 6.01 µM
CCCCCCCCCCCCCCOS(=O)(=O)O,,active: 32.6 µM
CC[C@H](C)C(=O)O[C@H]1C[C@@H](C)C=C2C=C[C@H](C)[C@H](CC[C@@H]3C[C@@H](O)CC(=O)O3)[C@H]21,inactive,
CCc1nc(N)nc(N)c1-c1ccc(Cl)cc1,,inconclusive: 63 µM
COC(=O)c1c(Cl)c(Cl)c(C(=O)OC)c(Cl)c1Cl,,inconclusive: 98.8 µM
COC(=O)c1ccc(C(=O)OC)cc1,,inconclusive: 202 µM
CC1=CC(=O)/C(=C(/C)O)C(=O)O1,,inconclusive: 2.38 µM
c1ccc2ccccc2c1,inactive,
CCOC(N)=O,inactive,
COc1cccc(-c2ccc(/C=C\CN3CCCCCC3)cc2Cl)c1,inactive,
Oc1cccc(O)c1,,inconclusive: 196 µM

# Random excerpt: 2 compounds from above
SMILES,outcome,AC50
C#C[C@]1(O)CC[C@H]2[C@@H]3CCC4=CC(=O)CC[C@@H]4[C@H]3CC[C@@]21CC,,inconclusive: 143 µM
COC(=O)c1c(Cl)c(Cl)c(C(=O)OC)c(Cl)c1Cl,,inconclusive: 98.8 µM

# (next part)

SMILES,outcome,AC50
C#C[C@]1(O)CC[C@H]2[C@@H]3CCC4=CC(=O)CC[C@@H]4[C@H]3CC[C@@]21C,inactive,
c1ccc(C(O[C@@H]2CCCN(CCc3ccc4c(c3)OCO4)C2)c2ccccc2)cc1,,active: 53.6 µM
CCCCCCCCOc1ccc(C(=O)c2ccccc2)c(O)c1,,inconclusive: 49.1 µM
CN(C)CCOC(c1ccccc1)c1ccccc1,,active: 32.7 µM
CCCCc1ccc2c(n1)[C@@H](c1ccc(OC)cc1C[C@H](C)C(=O)O)[C@H](C(=O)O)[C@H]2c1ccc2c(c1)OCO2,,inconclusive: 12.4 µM
CNCc1cc(F)ccc1Oc1ccc(Cl)c(Cl)c1,,inconclusive: 8.24 µM
O=C1CN(N=Cc2ccc([N+](=O)[O-])o2)C(=O)N1,inactive,
CCCC(=O)OCCC(C)C,,inconclusive: 35 µM
CC1(C)NC(=O)N(c2ccc([N+](=O)[O-])c(C(F)(F)F)c2)C1=O,,inconclusive: 119 µM
CCc1c(C(=O)NN2CCCCC2)nn(-c2ccc(Cl)cc2Cl)c1-c1ccc(Br)cc1,,inconclusive: 202 µM
CN(C)C(=O)C1(N2CCCCC2)CCN(CC[C@@]2(c3ccc(Cl)c(Cl)c3)CN(C(=O)c3ccccc3)CCO2)CC1,,inconclusive: 9.62 µM
CCCCOC(=O)c1ccc(O)cc1,,active: 49.3 µM
ClC1=C(Cl)C(Cl)(Cl)C(Cl)=C1Cl,,inconclusive: 2.29 µM
OCC(CO)(CO)CO,inactive,
CCC(C)N(C)C(=O)c1cc2ccccc2c(-c2ccccc2Cl)n1 (stereo unspecified),,active: 26.8 µM
